Reference: paper PMC4558130
Results are given in words; binding and its absence hold for the method and conditions named. In cells and extracts the contact can be indirect. These calls come from enrichment with a bait or labelling near it, and not all partners need be listed. Where a sequence is shown, tags or fusion partners need not be part of it.

Sequences of proteins named here, by UniProt entry; tags and fusion partners are left off.
UniProt Q04206: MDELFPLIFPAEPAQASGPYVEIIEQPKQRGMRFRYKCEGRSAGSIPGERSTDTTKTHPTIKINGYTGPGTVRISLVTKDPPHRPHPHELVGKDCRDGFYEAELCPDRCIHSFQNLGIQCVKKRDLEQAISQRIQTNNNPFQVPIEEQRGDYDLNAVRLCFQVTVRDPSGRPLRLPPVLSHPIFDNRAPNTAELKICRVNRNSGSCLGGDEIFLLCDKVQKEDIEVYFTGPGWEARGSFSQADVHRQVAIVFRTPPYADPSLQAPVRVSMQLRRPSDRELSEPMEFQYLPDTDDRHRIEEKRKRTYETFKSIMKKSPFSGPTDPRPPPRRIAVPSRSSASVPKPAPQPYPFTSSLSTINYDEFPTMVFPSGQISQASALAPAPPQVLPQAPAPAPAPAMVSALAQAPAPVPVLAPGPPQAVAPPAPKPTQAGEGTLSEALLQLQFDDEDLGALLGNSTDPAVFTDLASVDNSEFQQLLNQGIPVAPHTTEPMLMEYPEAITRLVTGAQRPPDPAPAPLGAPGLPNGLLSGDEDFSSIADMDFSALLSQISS

Target: T1, RRAD-Flag (wild type) (human) (UniProt P55042)
T1 sequence: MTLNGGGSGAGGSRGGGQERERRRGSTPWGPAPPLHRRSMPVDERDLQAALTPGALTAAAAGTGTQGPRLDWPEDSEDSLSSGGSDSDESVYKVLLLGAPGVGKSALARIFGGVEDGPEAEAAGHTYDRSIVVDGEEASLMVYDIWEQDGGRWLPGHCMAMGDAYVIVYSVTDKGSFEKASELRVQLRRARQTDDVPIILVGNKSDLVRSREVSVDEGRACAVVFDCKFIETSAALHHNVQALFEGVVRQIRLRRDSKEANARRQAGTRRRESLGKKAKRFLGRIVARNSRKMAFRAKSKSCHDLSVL
Experiment: affinity purification with mass spectrometry; RRAD-Flag precipitated from H1299-RRAD cells with anti-Flag (M2) beads, eluted with 0.1M glycine, SDS-PAGE, LC-MS/MS; H1299-con cells as control

binding: binds
Substance: endogenous p65 (from UniProt Q04206 1-551)
